These are yes or no findings as the source states them, for the method shown. In cells and extracts the contact can be indirect. Some results given as binding are weak or reduced against the parent protein; the word gives no strength.
Legend:
[1] = biological target: Myc-tagged Nkx2-5 (UniProt P42582); test: co-IP; COS-7 cells transfected with both; lysed in RIPA buffer; Myc-tagged Nkx2-5 precipitated, Flag-tagged Smad4 constructs detected with anti-Smad4 and anti-Flag antibodies (Fig. 3B)
[2] = biological target: Myc-tagged Nkx2-5 (UniProt P42582); test: co-IP; nuclear extract of transfected COS-7 cells (NE-PER reagents), 24 h after transfection (Fig. 3D)
[3] = biological target: Flag-tagged Smad4 (UniProt Q13485); test: co-IP; COS-7 cells transfected with both; lysed in RIPA buffer; Flag-tagged Smad4 precipitated, Myc-Nkx2-5 detected with anti-Nkx2-5 and anti-Myc antibodies (Fig. 3A)

Amino acid sequences for entries named in this document (tags omitted).
UniProt P42582: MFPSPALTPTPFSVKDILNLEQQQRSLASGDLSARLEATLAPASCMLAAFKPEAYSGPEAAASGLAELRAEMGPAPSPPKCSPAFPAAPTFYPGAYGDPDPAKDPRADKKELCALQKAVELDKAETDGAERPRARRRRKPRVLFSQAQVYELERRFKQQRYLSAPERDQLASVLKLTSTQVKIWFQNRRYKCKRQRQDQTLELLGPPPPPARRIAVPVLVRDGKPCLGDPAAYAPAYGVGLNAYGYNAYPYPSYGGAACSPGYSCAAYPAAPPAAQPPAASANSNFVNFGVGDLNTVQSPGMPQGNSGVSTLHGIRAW
UniProt Q13485: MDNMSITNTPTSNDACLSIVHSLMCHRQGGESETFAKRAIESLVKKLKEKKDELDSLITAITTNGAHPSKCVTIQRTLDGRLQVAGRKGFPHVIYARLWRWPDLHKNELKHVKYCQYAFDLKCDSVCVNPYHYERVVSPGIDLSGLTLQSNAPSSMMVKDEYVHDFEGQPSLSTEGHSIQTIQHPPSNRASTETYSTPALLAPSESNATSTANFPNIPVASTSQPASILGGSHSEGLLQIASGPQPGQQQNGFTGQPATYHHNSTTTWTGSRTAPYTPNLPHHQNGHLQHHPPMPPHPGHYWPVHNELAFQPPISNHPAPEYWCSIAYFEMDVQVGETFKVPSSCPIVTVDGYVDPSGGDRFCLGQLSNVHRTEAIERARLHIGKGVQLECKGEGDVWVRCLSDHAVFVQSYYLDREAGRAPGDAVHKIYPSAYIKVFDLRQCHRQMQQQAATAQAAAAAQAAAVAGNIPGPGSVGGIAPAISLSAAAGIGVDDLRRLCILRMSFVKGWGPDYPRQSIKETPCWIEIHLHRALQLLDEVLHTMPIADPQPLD

| binding [1] | binding [2] | binding [3] | Substance |
| --- | --- | --- | --- |
| binds | binds |  | Flag-tagged Smad4 (from UniProt Q13485 1-552) |
|  |  | binds | Myc-tagged Nkx2-5 (from UniProt P42582 1-318) |

Source: article PMC7878807
